Results are given in words; binding and its absence hold for the method and conditions named. In cells and extracts the contact can be indirect. Some results given as binding are weak or reduced against the parent protein; the word gives no strength. For part of these data: Tags and fused reporters may be left off the sequences shown.
Tests used:
FLAG-YOD1 (mouse) = molecular target: T1, FLAG-YOD1 (mouse) (UniProt Q8CB27); experiment: co-IP; NIH/3T3 cells transfected with GFP-RIPK2 and FLAG-YOD1 plasmids (full length or truncated) for 24 h, in the truncation panel MG132 20 μM for 6 h before lysis; anti-FLAG immunoprecipitation, western blot
T1 sequence: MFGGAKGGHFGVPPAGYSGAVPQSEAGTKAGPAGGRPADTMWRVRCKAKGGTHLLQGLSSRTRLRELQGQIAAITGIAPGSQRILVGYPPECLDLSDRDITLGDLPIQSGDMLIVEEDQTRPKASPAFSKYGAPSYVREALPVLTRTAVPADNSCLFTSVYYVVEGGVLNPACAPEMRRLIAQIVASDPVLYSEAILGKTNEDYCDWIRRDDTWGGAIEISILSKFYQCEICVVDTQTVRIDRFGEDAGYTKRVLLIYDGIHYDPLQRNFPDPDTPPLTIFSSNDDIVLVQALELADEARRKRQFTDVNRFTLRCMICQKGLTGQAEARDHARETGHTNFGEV

Protein sequences, listed by entry. Tags and fused reporters are not part of them.
UniProt P58801: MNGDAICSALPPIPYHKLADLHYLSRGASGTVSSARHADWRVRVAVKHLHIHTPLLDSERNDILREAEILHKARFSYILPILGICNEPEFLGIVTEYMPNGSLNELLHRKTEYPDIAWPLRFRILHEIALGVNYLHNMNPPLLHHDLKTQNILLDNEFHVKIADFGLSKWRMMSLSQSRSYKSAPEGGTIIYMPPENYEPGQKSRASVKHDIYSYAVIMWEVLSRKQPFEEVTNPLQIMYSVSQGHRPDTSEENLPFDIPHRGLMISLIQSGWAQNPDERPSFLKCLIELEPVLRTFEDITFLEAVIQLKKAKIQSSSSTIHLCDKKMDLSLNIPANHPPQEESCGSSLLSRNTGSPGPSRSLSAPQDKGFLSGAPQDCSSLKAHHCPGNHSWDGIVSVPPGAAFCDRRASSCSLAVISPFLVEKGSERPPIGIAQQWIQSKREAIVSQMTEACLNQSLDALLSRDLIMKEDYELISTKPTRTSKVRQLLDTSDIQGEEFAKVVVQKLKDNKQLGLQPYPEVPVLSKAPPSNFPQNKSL
UniProt Q60989: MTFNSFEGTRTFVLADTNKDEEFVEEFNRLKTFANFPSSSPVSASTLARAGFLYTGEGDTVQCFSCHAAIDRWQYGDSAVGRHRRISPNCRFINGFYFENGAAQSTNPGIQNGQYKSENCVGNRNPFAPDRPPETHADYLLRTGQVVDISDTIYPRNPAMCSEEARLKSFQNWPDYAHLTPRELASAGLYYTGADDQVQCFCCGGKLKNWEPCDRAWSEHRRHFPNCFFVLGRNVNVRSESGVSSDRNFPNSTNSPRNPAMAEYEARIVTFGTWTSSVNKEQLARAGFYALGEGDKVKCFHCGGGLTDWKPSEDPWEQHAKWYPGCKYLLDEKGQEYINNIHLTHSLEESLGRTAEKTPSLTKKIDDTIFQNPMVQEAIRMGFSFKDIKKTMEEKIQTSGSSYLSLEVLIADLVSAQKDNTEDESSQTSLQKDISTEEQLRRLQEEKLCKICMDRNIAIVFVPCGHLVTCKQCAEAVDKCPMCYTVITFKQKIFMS

[1] = molecular target: receptor-interacting serine/threonine kinase 2 (RIPK2) (mouse (endogenous in RAW264.7 cells and BMDMs)) (UniProt P58801); experiment: co-IP; anti-RIPK2 antibody immunoprecipitation from BMDMs of Yod1+/+ and Yod1-/- mice stimulated with L18-MDP (200 ng/ml) for the indicated time points, western blot; endogenous proteins
[2] = molecular target: T2, YOD1 (mouse (endogenous in RAW264.7 cells and BMDMs)) (UniProt Q8CB27); experiment: co-IP; anti-YOD1 antibody immunoprecipitation from BMDM lysate (RIPA buffer), western blot; endogenous proteins
T2 sequence: T1 sequence

## GFP-RIPK2 (from UniProt P58801 1-539)
FLAG-YOD1 (mouse)
  binding: binds

## XIAP (from UniProt Q60989 1-496) (enzyme)
[1]
  binding: binds

## receptor-interacting serine/threonine kinase 2 (RIPK2) (from UniProt P58801 1-539)
[2]
  binding: binds

From publication PMC11549337
